No constants are given. Whether binding was seen depends on the method and setting. In cells and extracts the contact can be indirect. These calls come from enrichment with a bait or labelling near it, and not all partners need be listed. For some of these results: Sequences can lack the tags named with a protein.
B1: DDX46 (protein, UniProt Q7L014 1-1031)
chain: MGRESRHYRKRSASRGRSGSRSRSRSPSDKRSKRGDDRRSRSRDRDRRRERSRSRDKRRSRSRDRKRLRRSRSRERDRSRERRRSRSRDRRRSRSRSRGRRSRSSSPGNKSKKTENRSRSKEKTDGGESSKEKKKDKDDKEDEKEKDAGNFDQNKLEEEMRKRKERVEKWREEQRKKAMENIGELKKEIEEMKQGKKWSLEDDDDDEDDPAEAEKEGNEMEGEELDPLDAYMEEVKEEVKKFNMRSVKGGGGNEKKSGPTVTKVVTVVTTKKAVVDSDKKKGELMENDQDAMEYSSEEEEVDLQTALTGYQTKQRKLLEPVDHGKIEYEPFRKNFYVEVPELAKMSQEEVNVFRLEMEGITVKGKGCPKPIKSWVQCGISMKILNSLKKHGYEKPTPIQTQAIPAIMSGRDLIGIAKTGSGKTIAFLLPMFRHIMDQRSLEEGEGPIAVIMTPTRELALQITKECKKFSKTLGLRVVCVYGGTGISEQIAELKRGAEIIVCTPGRMIDMLAANSGRVTNLRRVTYVVLDEADRMFDMGFEPQVMRIVDNVRPDRQTVMFSATFPRAMEALARRILSKPIEVQVGGRSVVCSDVEQQVIVIEEEKKFLKLLELLGHYQESGSVIIFVDKQEHADGLLKDLMRASYPCMSLHGGIDQYDRDSIINDFKNGTCKLLVATSVAARGLDVKHLILVVNYSCPNHYEDYVHRAGRTGRAGNKGYAYTFITEDQARYAGDIIKALELSGTAVPPDLEKLWSDFKDQQKAEGKIIKKSSGFSGKGFKFDETEQALANERKKLQKAALGLQDSDDEDAAVDIDEQIESMFNSKKRVKDMAAPGTSSVPAPTAGNAEKLEIAKRLALRINAQKNLGIESQDVMQQATNAILRGGTILAPTVSAKTIAEQLAEKINAKLNYVPLEKQEEERQDGGQNESFKRYEEELEINDFPQTARWKVTSKEALQRISEYSEAAITIRGTYFPPGKEPKEGERKIYLAIESANELAVQKAKAEITRLIKEELIRLQNSYQPTNKGRYKVL
B2: endogenous LUC7L3 (protein, UniProt O95232 1-432)
chain: MISAAQLLDELMGRDRNLAPDEKRSNVRWDHESVCKYYLCGFCPAELFTNTRSDLGPCEKIHDENLRKQYEKSSRFMKVGYERDFLRYLQSLLAEVERRIRRGHARLALSQNQQSSGAAGPTGKNEEKIQVLTDKIDVLLQQIEELGSEGKVEEAQGMMKLVEQLKEERELLRSTTSTIESFAAQEKQMEVCEVCGAFLIVGDAQSRVDDHLMGKQHMGYAKIKATVEELKEKLRKRTEEPDRDERLKKEKQEREEREKEREREREERERKRRREEEEREKERARDRERRKRSRSRSRHSSRTSDRRCSRSRDHKRSRSRERRRSRSRDRRRSRSHDRSERKHRSRSRDRRRSKSRDRKSYKHRSKSRDREQDRKSKEKEKRGSDDKKSSVKSGSREKQSEDTNTESKESDTKNEVNGTSEDIKSEGDTQSN
B3: FIP1L1 (protein, UniProt Q6UN15 1-594)
chain: MSAGEVERLVSELSGGTGGDEEEEWLYGGPWDVHVHSDLAKDLDENEVERPEEENASANPPSGIEDETAENGVPKPKVTETEDDSDSDSDDDEDDVHVTIGDIKTGAPQYGSYGTAPVNLNIKTGGRVYGTTGTKVKGVDLDAPGSINGVPLLEVDLDSFEDKPWRKPGADLSDYFNYGFNEDTWKAYCEKQKRIRMGLEVIPVTSTTNKITAEDCTMEVTPGAEIQDGRFNLFKVQQGRTGNSEKETALPSTKAEFTSPPSLFKTGLPPSRNSTSSQSQTSTASRKANSSVGKWQDRYGRAESPDLRRLPGAIDVIGQTITISRVEGRRRANENSNIQVLSERSATEVDNNFSKPPPFFPPGAPPTHLPPPPFLPPPPTVSTAPPLIPPPGFPPPPGAPPPSLIPTIESGHSSGYDSRSARAFPYGNVAFPHLPGSAPSWPSLVDTSKQWDYYARREKDRDRERDRDRERDRDRDRERERTRERERERDHSPTPSVFNSDEERYRYREYAERGYERHRASREKEERHRERRHREKEETRHKSSRSNSRRRHESEEGDSHRRHKHKKSKRSKEGKEAGSEPAPEQESTEATPAE

Sequences of proteins named here, by UniProt entry; tags and fusion partners are left off. A change or cut given only in a name is not applied to a line headed by its entry.
UniProt P08621: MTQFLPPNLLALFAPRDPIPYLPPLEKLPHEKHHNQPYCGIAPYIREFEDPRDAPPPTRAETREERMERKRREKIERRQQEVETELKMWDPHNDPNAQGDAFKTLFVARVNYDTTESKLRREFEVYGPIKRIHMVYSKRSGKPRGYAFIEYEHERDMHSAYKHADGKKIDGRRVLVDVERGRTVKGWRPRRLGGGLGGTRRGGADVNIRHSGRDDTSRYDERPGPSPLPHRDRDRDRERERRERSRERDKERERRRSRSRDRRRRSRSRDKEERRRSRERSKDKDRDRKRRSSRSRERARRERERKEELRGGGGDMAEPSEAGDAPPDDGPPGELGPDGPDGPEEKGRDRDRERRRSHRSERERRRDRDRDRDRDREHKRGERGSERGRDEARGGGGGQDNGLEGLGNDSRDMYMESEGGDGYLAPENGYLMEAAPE
UniProt Q07955: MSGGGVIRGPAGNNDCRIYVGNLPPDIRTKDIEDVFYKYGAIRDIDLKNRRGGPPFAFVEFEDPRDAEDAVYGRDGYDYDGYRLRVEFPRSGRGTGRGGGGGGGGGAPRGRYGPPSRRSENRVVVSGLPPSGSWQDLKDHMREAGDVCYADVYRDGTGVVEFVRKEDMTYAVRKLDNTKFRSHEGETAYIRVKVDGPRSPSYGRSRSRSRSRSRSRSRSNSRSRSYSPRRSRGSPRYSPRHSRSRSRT
UniProt P09012: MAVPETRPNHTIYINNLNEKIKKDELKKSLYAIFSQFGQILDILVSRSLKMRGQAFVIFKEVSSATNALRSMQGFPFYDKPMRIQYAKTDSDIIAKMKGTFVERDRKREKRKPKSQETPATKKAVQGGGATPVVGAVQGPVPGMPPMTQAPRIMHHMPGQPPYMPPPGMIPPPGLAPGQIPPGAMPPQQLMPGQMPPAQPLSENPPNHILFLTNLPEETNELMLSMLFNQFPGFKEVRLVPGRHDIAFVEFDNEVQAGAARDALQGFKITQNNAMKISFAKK
UniProt P09234: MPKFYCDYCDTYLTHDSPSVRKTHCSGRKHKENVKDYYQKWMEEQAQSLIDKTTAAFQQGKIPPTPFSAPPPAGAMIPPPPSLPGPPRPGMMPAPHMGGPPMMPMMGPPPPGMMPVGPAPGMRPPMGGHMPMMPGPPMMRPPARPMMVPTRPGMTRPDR
UniProt Q5T200: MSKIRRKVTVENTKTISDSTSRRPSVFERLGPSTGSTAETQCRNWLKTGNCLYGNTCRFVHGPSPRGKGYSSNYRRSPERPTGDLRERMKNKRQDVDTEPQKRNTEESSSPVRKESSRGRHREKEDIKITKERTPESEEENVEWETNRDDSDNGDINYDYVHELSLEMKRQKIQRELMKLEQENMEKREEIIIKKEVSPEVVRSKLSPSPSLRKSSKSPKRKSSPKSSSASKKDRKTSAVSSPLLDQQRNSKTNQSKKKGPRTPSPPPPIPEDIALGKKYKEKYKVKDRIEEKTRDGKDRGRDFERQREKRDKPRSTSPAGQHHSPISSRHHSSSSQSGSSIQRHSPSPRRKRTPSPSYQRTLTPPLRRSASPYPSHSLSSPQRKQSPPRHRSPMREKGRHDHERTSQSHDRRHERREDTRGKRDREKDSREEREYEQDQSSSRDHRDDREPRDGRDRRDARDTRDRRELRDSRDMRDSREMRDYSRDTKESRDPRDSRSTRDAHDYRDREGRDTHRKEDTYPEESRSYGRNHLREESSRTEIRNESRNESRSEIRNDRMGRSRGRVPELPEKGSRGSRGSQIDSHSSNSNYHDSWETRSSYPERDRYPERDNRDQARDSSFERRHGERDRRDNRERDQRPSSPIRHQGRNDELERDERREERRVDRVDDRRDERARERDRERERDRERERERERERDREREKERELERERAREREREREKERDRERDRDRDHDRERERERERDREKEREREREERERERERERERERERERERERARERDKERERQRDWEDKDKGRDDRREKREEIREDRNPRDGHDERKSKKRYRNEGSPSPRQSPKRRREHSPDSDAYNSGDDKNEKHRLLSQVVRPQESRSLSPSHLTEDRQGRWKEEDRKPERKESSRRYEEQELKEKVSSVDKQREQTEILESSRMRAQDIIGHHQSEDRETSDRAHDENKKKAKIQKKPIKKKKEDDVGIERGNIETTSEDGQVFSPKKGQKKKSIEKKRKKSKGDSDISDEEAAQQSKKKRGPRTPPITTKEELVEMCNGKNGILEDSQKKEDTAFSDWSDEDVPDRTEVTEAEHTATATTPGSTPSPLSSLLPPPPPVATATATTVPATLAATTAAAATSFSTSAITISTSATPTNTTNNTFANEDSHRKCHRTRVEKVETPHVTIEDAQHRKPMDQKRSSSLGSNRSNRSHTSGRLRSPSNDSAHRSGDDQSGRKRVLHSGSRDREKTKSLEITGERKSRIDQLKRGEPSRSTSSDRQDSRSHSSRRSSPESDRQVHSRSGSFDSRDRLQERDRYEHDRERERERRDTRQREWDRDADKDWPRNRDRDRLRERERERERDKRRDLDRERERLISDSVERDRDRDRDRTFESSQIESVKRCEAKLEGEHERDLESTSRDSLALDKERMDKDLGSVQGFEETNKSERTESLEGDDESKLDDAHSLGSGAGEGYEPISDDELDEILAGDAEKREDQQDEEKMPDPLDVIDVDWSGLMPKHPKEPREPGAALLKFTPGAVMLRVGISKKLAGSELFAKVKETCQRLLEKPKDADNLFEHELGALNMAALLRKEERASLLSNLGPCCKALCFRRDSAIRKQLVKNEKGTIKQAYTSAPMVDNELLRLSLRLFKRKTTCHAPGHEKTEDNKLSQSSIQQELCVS

molecular target: full-length recombinant GST-fused and Myc-tagged U1-70K (rU1-70K) (UniProt P08621); experiment: affinity purification with mass spectrometry

binding, binds:
SRSF1 (from UniProt Q07955 1-248), U1A (from UniProt P09012 1-282), U1C (from UniProt P09234 1-159), ZC3H13 (from UniProt Q5T200 1-1668)

molecular target: full-length recombinant GST-fused and Myc-tagged U1-70K (rU1-70K) (UniProt P08621); experiment: affinity purification with mass spectrometry; remark: another data set of the same source

binding, binds:
B1, B2, B3

From doi:10.1101/243014
